Experimental data published in article PMC10655391, “Inhibition of Hsp110-STAT3 interaction in endothelial cells alleviates vascular remodeling in hypoxic pulmonary arterial Hypertension model” (Respiratory Research, 2023).
Results are given in words; binding and its absence hold for the method and conditions named. Binding seen in cells or lysates may run through a third protein. Some binding calls cover weakened binding; strength is not graded here.

Sequences of proteins named here, by UniProt entry; tags and fusion partners are left off.
UniProt P40763: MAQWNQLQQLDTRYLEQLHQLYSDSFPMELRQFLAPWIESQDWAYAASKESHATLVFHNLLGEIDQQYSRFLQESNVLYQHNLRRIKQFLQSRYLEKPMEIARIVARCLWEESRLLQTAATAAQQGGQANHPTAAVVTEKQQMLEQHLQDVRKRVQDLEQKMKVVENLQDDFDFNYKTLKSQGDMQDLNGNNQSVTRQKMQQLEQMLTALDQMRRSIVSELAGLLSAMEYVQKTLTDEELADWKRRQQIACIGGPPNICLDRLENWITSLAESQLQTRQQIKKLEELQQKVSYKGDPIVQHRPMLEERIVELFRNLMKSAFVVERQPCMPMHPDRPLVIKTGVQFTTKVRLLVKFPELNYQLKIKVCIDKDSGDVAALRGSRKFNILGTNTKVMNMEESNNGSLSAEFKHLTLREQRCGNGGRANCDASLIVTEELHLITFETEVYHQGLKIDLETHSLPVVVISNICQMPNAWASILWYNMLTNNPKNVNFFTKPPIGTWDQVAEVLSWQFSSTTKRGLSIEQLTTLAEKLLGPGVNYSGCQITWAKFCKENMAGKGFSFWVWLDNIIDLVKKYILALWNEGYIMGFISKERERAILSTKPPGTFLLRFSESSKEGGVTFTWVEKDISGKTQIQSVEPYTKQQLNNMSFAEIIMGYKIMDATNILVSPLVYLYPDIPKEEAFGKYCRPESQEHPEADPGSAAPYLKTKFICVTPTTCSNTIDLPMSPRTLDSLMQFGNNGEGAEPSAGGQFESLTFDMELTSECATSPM
UniProt Q92598: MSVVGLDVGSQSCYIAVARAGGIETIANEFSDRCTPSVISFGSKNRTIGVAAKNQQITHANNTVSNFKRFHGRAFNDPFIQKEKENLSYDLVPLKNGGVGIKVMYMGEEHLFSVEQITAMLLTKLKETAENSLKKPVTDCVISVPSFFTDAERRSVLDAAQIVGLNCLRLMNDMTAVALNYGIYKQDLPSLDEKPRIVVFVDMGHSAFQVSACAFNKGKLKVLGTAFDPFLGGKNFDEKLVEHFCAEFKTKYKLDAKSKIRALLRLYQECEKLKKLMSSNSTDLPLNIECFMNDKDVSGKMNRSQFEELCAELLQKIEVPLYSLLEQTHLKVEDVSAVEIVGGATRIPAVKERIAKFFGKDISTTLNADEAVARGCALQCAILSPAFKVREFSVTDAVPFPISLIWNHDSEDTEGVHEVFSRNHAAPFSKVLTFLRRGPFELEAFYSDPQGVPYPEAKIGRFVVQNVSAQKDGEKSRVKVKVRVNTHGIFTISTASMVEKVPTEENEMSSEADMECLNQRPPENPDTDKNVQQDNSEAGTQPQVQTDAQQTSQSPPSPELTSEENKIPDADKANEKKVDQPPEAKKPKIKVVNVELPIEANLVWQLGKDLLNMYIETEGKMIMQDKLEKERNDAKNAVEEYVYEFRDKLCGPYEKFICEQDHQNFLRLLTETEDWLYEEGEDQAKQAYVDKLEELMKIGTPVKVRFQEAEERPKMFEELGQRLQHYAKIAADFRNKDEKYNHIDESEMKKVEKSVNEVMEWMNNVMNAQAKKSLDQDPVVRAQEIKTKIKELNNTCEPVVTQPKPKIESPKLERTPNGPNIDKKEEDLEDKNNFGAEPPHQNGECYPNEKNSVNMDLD

What was measured:
[1] = biological target: signal transducer and activator of transcription 3 (human (endogenous in HCT116 and HPAECs)) (UniProt P40763); assay: co-IP; endogenous proteins in HCT116 lysate (IP buffer, 4 °C); precipitated with mouse STAT3 antibody overnight at 4 °C and protein A agarose, blotted for Hsp110; cells treated with compound 6 (10 µM) or KNK437 (20 µM) for 48 h or not treated
[2] = biological target: signal transducer and activator of transcription 3 (human (endogenous in HCT116 and HPAECs)) (UniProt P40763); assay: co-IP; endogenous proteins in HPAEC lysate (IP buffer, 4 °C); precipitated with mouse STAT3 antibody overnight at 4 °C and protein A agarose, blotted for Hsp110; cells treated with compound 6 (10 µM) or KNK437 (20 µM) for 48 h or not treated

binding [1]: binds
binding [2]: binds
Substance: Heat shock protein 110 (from UniProt Q92598 1-858)
